Data as given in PMC8938553.
No constants are given. Whether binding was seen depends on the method and setting. Some entries that bind do so weakly or less than the wild type. Values belong to the molecule of their own block, whether it stands above or below them.

By UniProt entry, the sequences of proteins in these tests, tags left out.
UniProt Q2G036: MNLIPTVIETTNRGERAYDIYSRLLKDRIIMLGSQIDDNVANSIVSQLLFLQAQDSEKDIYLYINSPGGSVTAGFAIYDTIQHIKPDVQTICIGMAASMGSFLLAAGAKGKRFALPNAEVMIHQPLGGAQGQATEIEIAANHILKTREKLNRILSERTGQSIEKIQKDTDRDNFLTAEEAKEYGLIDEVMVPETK

Tests used:
ClpP (S. aureus) = ClpP (S. aureus) (UniProt Q2G036); assay: two-hybrid; bacterial two-hybrid (T25 and T18 domains of adenylate cyclase) in E. coli BTH101; all combinations of plasmid pairs; beta-galactosidase in Miller units after 48 h at 30 °C in LB with 0.5 mM IPTG
[1] = target: ComK competence regulator of Staphylococcus aureus (S. aureus); assay: as above

binding (ClpP (S. aureus)): binds
Molecule: ComK competence regulator of Staphylococcus aureus (from UniProt A0A0H2XJ42 1-176)

binding [1]: no binding
B1: MecA-homolog (SA0857 locus) of S. aureus (protein, UniProt P60185 1-239)
chain: MRIERVDDTTVKLFITYSDIEARGFSREDLWTNRKRGEEFFWSMMDEINEEEDFVVEGPLWIQVHAFEKGVEVTISKSKNEDMMNMSDDDATDQFDEQVQELLAQTLEGEDQLEELFEQRTKEKEAQGSKRQKSSARKNTRTIIVKFNDLEDVINYAYHSNPITTEFEDLLYMVDGTYYYAVHFDSHVDQEVINDSYSQLLEFAYPTDRTEVYLNDYAKIIMSHNVTAQVRRYFPETTE
